In the experiment the target is human MIP-1α (CCL3) (human) (UniProt P10147). Nature of the experiment: direct ELISA, chemokine coated at 10 ng/well, fusion at 1 µg/well.

The chains behind the UniProt entries cited, without tags or fusion partners. Residues count along the entry.
UniProt P10147, residues 27-92: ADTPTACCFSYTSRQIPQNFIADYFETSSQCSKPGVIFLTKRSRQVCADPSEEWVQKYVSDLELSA

Results are given in words; binding and its absence hold for the method and conditions named. Some binding calls cover weakened binding; strength is not graded here.

B1: mCCR5(EC2)-IgG (Fc fusion)
chain: DAAQPARRARRTKLRSQKEGFHYTCSPHFPHTQYHFWKSFQTLKLEVPRDCGCKPCICTVPEVSSVFIFPPKPKDVLTITLTPKVTCVVVDISKDDPEVQFSWFVDDVEVHTAQTQPREEQFNSTFRSVSELPIMHQDCLNGKEFKCRVNSAAFPAPIEKTISKTKGRPKAPQVYTIPPPKEQMAKDKVSLTCMITDFFPEDITVEWQWNGQPAENYKNTQPIMDTDGSYFVYSKLNVQKSNWEAGNTFTCSVLHEGLHNHHTEKSLSHSPGKGPEQKLISEEDLNSAVDHHHHHH
On to B1, for which the binding result is recorded as “binds”.

The values above are taken from US20100227805A1.
